42 sequences from paper PMC7819943, “Rice protein-binding microarrays: a tool to detect cis-acting elements near promoter regions in rice” can be followed below.

The chains behind the UniProt entries cited, without tags or fusion partners.
UniProt Q0JBA9, entry or part of it: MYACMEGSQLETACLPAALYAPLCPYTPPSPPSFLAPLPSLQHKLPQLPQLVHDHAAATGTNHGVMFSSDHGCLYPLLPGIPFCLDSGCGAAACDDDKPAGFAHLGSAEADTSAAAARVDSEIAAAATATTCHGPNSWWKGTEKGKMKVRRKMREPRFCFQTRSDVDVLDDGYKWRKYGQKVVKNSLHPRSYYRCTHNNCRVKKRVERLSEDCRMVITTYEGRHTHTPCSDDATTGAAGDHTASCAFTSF

The other results are listed elsewhere or left out.

The test has as its target OsWRKY34 (Oryza sativa, UniProt Q0JBA9 1-250). In words: protein-binding microarray (RPBM); PBS, 2% BSA, 51.3 ng/ul salmon testes DNA, 50 uM zinc acetate, 200 nM TF, 25 C, 1 h; high values mean tight binding. As to conditions: protein: recombinant; tags: N-terminal polyhistidine and DsRed monomer fusion (pET32a); label: CyDye5-dUTP incorporated in the synthesized complementary strand; 3' TTTTT single-stranded linker to array surface; dsDNA, one strand shown. The procedure, abridged: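 Using Ni–NTA, transcription factors fused N-terminally to polyhistidine and DsRed were purified after expression in E. coli BL21-CodonPlus. These were incubated at 200 nM with a blocked, double-stranded custom Agilent array for 1 h at 25 °C in a buffer containing 50 µM zinc acetate, and the array was washed. The binding signal is per-feature fluorescence intensity (arbitrary units) on an Axon 4000B scanner.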
As to “GTGACATTCGACGATCTGGGCTCACGATACCACACACACTCGGAGTCACCTAGTGCAG”, the binding signal was 9230 fluorescence intensity (a.u.).
As for “ATGTATGACGCTGTTGACTTTGTAACCAATATTTGACCATCGGAGTCACCTAGTGCAG”, the binding signal was 13400 fluorescence intensity (a.u.).
The result for “AACGATGACGACGTGTGCGCGCTGTTGTTTTTTTGTCCCACGGAGTCACCTAGTGCAG” reads 19700 fluorescence intensity (a.u.); that for “CCCGCTGTCAAGTATGCTACTTATGATTATCTCCTACTATCGGAGTCACCTAGTGCAG”, 9060 fluorescence intensity (a.u.); that for “GAACAAACATTACTTACATAATGAGTTTCGTGTTGCGGGGCGGAGTCACCTAGTGCAG”, 8680 fluorescence intensity (a.u.).
Turning to “TCCGTCCTCGCCGTCGCCATCTCGGACAGCTACTAGCATGCGGAGTCACCTAGTGCAG”, the binding signal was 8120 fluorescence intensity (a.u.).
With “CACTCCTGCTGCCGTCCAGTTGCAATTGCGTTTTCTCCTTCGGAGTCACCTAGTGCAG”, the binding signal is 16700 fluorescence intensity (a.u.).
As to “GTCCGTCCACTCACCCACGCCACCGCCACCGCCACGCATGCGGAGTCACCTAGTGCAG”, the binding signal was 11000 fluorescence intensity (a.u.).
For “GCTGCCTAATTTTGTCCGAGATGTGCCCATCAAATCCAACCGGAGTCACCTAGTGCAG”, the binding signal was 10600 fluorescence intensity (a.u.).
The result for “CATTGGTTGTATTCCTCTTTTCCATACTTAATATATTGGACGGAGTCACCTAGTGCAG” reads 11000 fluorescence intensity (a.u.); that for “GCATTTCGTGTTCCCTTTTTGCCTTTTTTTCCCCTTTTCTCGGAGTCACCTAGTGCAG”, 10300 fluorescence intensity (a.u.).
The result for “CTTCCGCTTATGTTTTCACAAATTTCCAAAGTTTCCAATACGGAGTCACCTAGTGCAG” reads 8820 fluorescence intensity (a.u.); that for “GGCCTTACTCTTTTTGGTGGGCTTTCGCTTCGGACTCCGCCGGAGTCACCTAGTGCAG”, 10100 fluorescence intensity (a.u.).
As for “TGTTGCTGCTGCGGTGTGTGTGCTGGTGCTGCAGCTGCAGCGGAGTCACCTAGTGCAG”, the binding signal was 10500 fluorescence intensity (a.u.).
The result for “CTACATGGGTATCTATAGCTCTCTAATCCATTGCCTCGTTCGGAGTCACCTAGTGCAG” reads 9390 fluorescence intensity (a.u.); that for “TGCAACGTGTCTTAAATCTTCCTATCTTCAGCTAGCCTACCGGAGTCACCTAGTGCAG”, 8880 fluorescence intensity (a.u.).
Consider “AAAACGACGTCTTGCAACCTTCACGTGCCATGACACCAACCGGAGTCACCTAGTGCAG”, for which the binding signal was 8090 fluorescence intensity (a.u.).
The figure for “ACCATTCATTTCTATCTATTTTCTTAATAACTGTGTCTAACGGAGTCACCTAGTGCAG” is 9260 fluorescence intensity (a.u.).
“TTTTCTTCTCTCTTGCGCCATCAACCCCGCGTCCAACCCACGGAGTCACCTAGTGCAG”: the binding signal is 8380 fluorescence intensity (a.u.).
Consider “CCCGTGTTTGTGTGTCTTTCTCAATTGCAAACTATCGTATCGGAGTCACCTAGTGCAG”, for which the binding signal is 8990 fluorescence intensity (a.u.).
With “TCATCTCATAGTTTACAAGCGGAATCTATAATTTGTTTTGCGGAGTCACCTAGTGCAG”, the binding signal was 8510 fluorescence intensity (a.u.).
In the case of “TCCTGCCTTTATCTTGTTTCCTTTATCACTTCCATATCTGCGGAGTCACCTAGTGCAG”, the binding signal is 14100 fluorescence intensity (a.u.).
Take “CATATATAGTCTTTGTCATGTTATTCCCAAGACTTACTTCCGGAGTCACCTAGTGCAG”: the binding signal was 10800 fluorescence intensity (a.u.).
On to “CGCCCACTCTATCGTCTCGTCTCGTCTCTCCTCACTCCACCGGAGTCACCTAGTGCAG”, for which the binding signal is 12400 fluorescence intensity (a.u.).
Take “CCACCTGTCGCCGCCGATGCTCCTCCTCACCGGTGTCCACCGGAGTCACCTAGTGCAG”: the binding signal was 12200 fluorescence intensity (a.u.).
For the sequence “ATCGGGACAGCGGGGTGACAACAATGACTACAACGACGGTCGGAGTCACCTAGTGCAG”, the binding signal was 10900 fluorescence intensity (a.u.).
Regarding “ATCCTGGTGCTTTGTTTGATCATCCCTCAGTCAGATCCATCGGAGTCACCTAGTGCAG”, the binding signal is 9150 fluorescence intensity (a.u.).
The result for “TTACGACAACCCGCCATGTCTTTTTTTCCGCCATAAGTACCGGAGTCACCTAGTGCAG” reads 10500 fluorescence intensity (a.u.).
In the case of “TTCGTCTTCCCCGTCGCATTTACGCTGCCGATCCGAGCGCCGGAGTCACCTAGTGCAG”, the binding signal is 8560 fluorescence intensity (a.u.).
The figure for “TGCTAACCCTGTTCCAGCTCAGCTCCATTGATGAACTACTCGGAGTCACCTAGTGCAG” is 8020 fluorescence intensity (a.u.).
For the sequence “CGTGGCAACAACCTCGTCGTCGTTCTTGTTCTTGTTCTTGCGGAGTCACCTAGTGCAG”, the binding signal was 11500 fluorescence intensity (a.u.).
Turning to “GTAAAATAGGGGTTGGGTGTCGATAGCGGGAACAGTTGATCGGAGTCACCTAGTGCAG”, the binding signal was 8340 fluorescence intensity (a.u.).
Consider “AGTTGGTGTATATGTTCTGTTCATGAACAATTTGGGATATCGGAGTCACCTAGTGCAG”, for which the binding signal was 9290 fluorescence intensity (a.u.).
For “CTCAGGCACATGTCCACGGTCCACCACAAGCGAGGCCCAACGGAGTCACCTAGTGCAG”, the binding signal was 8270 fluorescence intensity (a.u.).
For “TCTAGATTTATCCCCATTTTTGGCTGGGCCTTCTATTTAACGGAGTCACCTAGTGCAG”, the binding signal was 8720 fluorescence intensity (a.u.).
For the sequence “ACTACCCCTGTGTTTCATATTATAAGTCAGTTTTGAATTTCGGAGTCACCTAGTGCAG”, the binding signal was 10000 fluorescence intensity (a.u.).
The figure for “ATTAATCTATGTTGCCAATTTTTTTCATATTTTTATGACTCGGAGTCACCTAGTGCAG” is 10500 fluorescence intensity (a.u.); for “CATGGCAGTCACTTTCCCAGTTCCGGTTTTTGAATTGCTGCGGAGTCACCTAGTGCAG” it is 10500 fluorescence intensity (a.u.).
Take “AGGCAGTGGCTGTTTGCTCTTTGATCTGCATGTCCTTTGGCGGAGTCACCTAGTGCAG”: the binding signal is 8800 fluorescence intensity (a.u.).
In the case of “TCTCTCTCTCTCACACGCACACACCACTCTCTCGCCCACTCGGAGTCACCTAGTGCAG”, the binding signal is 9500 fluorescence intensity (a.u.).
On to “CTAGGAAGCGCCCCATCCCACCCACCGCCTAACCGCCTTCCGGAGTCACCTAGTGCAG”, for which the binding signal is 11700 fluorescence intensity (a.u.).
Regarding “AGATAAAGGTGAGGGTACTCGTGTGGGGCTTTTAACTTTTCGGAGTCACCTAGTGCAG”, the binding signal is 11700 fluorescence intensity (a.u.).
